[ ]: non-standard residue; d: D form. The star is where a group is joined. Propanoyl(3-cHex) = O=C(CCC1CCCCC1)*; Dab = NCC[C@H](N)C(=O)O

A short description of this data set: general procedure: Fmoc solid-phase peptide synthesis; Rink Amide resin (0.58 mmol/g, WATANABE CHEMICAL INDUSTRIES, LTD.). To be noted: whole synthesis; for isolated yield: scale of the general procedure 0.044 mmol (75 mg resin).

In the case of “3-Cyclohexylpropionyl-Leu-Leu-Ala(4-Pyri)-Pro-Arg-Asn-NH2”, the isolated mass stood at 40.2 mg and the isolated yield result was “yield 80%”.
For “{Propanoyl(3-cHex)}-LL[Dab]PRN-NH2 (SMILES CC(C)C[C@H](NC(=O)CCC1CCCCC1)C(=O)N[C@@H](CC(C)C)C(=O)N[C@@H](CCN)C(=O)N1CCC[C@H]1C(=O)N[C@@H](CCCNC(=N)N)C(=O)N[C@@H](CC(N)=O)C(N)=O)”, the isolated mass was determined as 39.9 mg and the isolated yield result is reported as “yield 79%”.
Turning to “3-Cyclohexylpropionyl-Leu-Leu-Ala(3-Pyri)-Pro-Arg-Asn-NH2”, the isolated mass is listed as 37.4 mg and the isolated yield result is listed as “yield 74%”.
The matching figures for “3-Cyclohexylpropionyl-Leu-Thr-Dbu-Pro-Arg-Asn-NH2”: 20.8 mg and “yield 81%”.
On the same counts, the results for “3-Cyclohexylpropionyl-Leu-Asp-Dbu-Pro-Arg-Asn-NH2” are 35.2 mg and “yield 74%”.
As for “3-Cyclohexylpropionyl-Leu-Leu-Ala(2-Pyri)-Pro-Arg-Asn-NH2”, the isolated mass was 6.1 mg and the isolated yield entry is “yield 12%”.
The matching figures for “3-Cyclohexylpropionyl-Asp-Leu-Dbu-Pro-Arg-Asn-NH2”: 35.2 mg and “yield 74%”.
The matching figures for “3-Cyclohexylpropionyl-Leu-Asn-Dbu-Pro-Arg-Asn-NH2”: 29.8 mg and “yield 63%”.
On to “1-Hexanoyl-Cha-Leu-Leu-Dbu-Pro-Arg-Asn-NH2”, for which the isolated mass amounted to 33.4 mg and the isolated yield entry is reported as “yield 64%”.
“3-Cyclohexylpropionyl-Leu-Dbu-Dbu-Pro-Arg-Asn-NH2”: the isolated mass worked out at 37.8 mg and the isolated yield result is “yield 66%”.

Values taken from patent US10550153B2 (Tokyo University of Pharmacy & Life Sciences, priority 2017, dated 2020).
